The data set in a line: LC-MS-MS quantification of inhibitor concentration in exemplary feedstock (corn stillage syrup). Particulars: [M + H]+, estimated from spiked standards.

`O=Cc1ccc(O)cc1` [4-hydroxybenzaldehyde]: the “Concentration range within exemplary feedstock” value is 10 to 100 µM.
As to `NCC(=O)CCC(=O)O` [5-aminolevulinic acid], the “Concentration range within exemplary feedstock” value was 10 to 200 µM.

These data come from US20230077896A1, “MICROBIAL LIPID PRODUCTION UTILIZING POST-FERMENTATION INDUSTRIAL WASTE STREAM FEEDSTOCKS” (C16 Biosciences, Inc., priority 2020, published 2023).
